Reference: US20030170807A1 (Johns Hopkins, published 2003)
No constants are given. Whether binding was seen depends on the method and setting. In cells and extracts the contact can be indirect. Some entries that bind do so weakly or less than the wild type.

Protein sequences, listed by entry. Tags and fused reporters are not part of them. Residues count along the entry.
UniProt P23385, residues 19-1199: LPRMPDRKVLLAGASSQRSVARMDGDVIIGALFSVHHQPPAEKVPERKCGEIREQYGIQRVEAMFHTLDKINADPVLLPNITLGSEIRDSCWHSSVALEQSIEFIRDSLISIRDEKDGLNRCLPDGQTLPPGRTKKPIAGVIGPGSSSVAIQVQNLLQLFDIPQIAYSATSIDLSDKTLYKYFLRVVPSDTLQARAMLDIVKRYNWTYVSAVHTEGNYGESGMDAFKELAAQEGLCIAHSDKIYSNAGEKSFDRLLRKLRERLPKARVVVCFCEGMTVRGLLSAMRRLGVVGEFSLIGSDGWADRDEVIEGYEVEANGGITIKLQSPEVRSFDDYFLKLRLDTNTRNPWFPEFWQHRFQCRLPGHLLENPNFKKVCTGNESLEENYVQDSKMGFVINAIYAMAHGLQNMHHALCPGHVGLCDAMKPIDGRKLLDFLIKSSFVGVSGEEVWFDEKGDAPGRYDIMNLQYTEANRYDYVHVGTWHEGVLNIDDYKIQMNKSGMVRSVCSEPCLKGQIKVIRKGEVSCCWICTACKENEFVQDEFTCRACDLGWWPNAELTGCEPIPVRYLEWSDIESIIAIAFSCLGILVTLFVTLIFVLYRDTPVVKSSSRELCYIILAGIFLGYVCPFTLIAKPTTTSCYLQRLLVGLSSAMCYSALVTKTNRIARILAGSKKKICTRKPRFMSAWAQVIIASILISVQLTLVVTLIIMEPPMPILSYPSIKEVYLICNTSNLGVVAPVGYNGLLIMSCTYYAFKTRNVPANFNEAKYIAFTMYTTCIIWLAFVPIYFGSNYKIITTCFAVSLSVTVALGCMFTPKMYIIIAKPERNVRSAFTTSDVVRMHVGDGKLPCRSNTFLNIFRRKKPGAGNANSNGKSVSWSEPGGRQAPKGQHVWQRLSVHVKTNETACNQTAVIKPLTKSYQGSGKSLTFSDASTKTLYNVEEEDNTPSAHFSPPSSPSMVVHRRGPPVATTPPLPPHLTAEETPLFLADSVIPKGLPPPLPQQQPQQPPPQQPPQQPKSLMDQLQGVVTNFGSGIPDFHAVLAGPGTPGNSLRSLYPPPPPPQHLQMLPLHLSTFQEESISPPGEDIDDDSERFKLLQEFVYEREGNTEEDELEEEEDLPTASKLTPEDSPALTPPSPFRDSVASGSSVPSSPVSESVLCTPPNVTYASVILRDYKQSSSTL

Target: mGluR1α, native, from rat cerebellum/brain extracts (rat) (UniProt P23385)
Test: co-immunoprecipitation from adult rat cerebellum extracts

binding: binds
B1: Homer 3, native, from rat brain extracts (protein, UniProt Q9Z2X5 1-358, looked up)
chain: MSTAREQPIFSTRAHVFQIDPATKRNWIPAGKHALTVSYFYDATRNVYRIISIGGAKAIINSTVTPNMTFTKTSQKFGQWADSRANTVYGLGFGSEQQLTQFAEKFQEVKEAARLAREKSQDGGELTSTALAMASHQVPPSPLVSTNGPEEKLFRSQSADAPGPTERERLKKMLSEGSVGEVQWEAEFFALQDSNQRLAGALREANAAATQWRQQLEVQRAEAEHLRQRVAELEAQVAAEPVRAGEKEATSQSVEQLEARVQTKDQEIQTLKNQSTGPREAPDTAEREETQQQVQDLETRNAELEQQLRAMESNLEEARAERERARAEVGRAAQLLDVRLFELSELREGLARLAEAAP
